For the data set, the system named is IgG^PSA. Put plainly: Relative degree of biotinylation of IgG^PSA (ELISA, streptavidin-HRP). Format: biochemical, mouse.

`O=C1N[C@H]2[C@H](CS[C@H]2CCCCC(=O)ON2C(=O)CCC2=O)N1` [NHS-Biotin, Biotin N-hydroxysuccinimide ester]: the “more biotinylation compared to the UV-NBS^Biotin” value is given as 2.14 fold. Besides, for the setting “biotinylated IgG^PSA 0-0.25 nM adsorbed to ELISA plates”, the “slope of the linear regression line (relative degree of biotinylation), S” value was 39,495. In addition, the “average number of biotins per IgG^PSA” value (manufacturer protocol) is 2.63.
